The source of these data is publication PMC4202173.

Sequences of proteins named here, by UniProt entry; tags and fusion partners are left off. A change or cut given only in a name is not applied to a line headed by its entry. Residues count along the entry.
UniProt Q96RK0: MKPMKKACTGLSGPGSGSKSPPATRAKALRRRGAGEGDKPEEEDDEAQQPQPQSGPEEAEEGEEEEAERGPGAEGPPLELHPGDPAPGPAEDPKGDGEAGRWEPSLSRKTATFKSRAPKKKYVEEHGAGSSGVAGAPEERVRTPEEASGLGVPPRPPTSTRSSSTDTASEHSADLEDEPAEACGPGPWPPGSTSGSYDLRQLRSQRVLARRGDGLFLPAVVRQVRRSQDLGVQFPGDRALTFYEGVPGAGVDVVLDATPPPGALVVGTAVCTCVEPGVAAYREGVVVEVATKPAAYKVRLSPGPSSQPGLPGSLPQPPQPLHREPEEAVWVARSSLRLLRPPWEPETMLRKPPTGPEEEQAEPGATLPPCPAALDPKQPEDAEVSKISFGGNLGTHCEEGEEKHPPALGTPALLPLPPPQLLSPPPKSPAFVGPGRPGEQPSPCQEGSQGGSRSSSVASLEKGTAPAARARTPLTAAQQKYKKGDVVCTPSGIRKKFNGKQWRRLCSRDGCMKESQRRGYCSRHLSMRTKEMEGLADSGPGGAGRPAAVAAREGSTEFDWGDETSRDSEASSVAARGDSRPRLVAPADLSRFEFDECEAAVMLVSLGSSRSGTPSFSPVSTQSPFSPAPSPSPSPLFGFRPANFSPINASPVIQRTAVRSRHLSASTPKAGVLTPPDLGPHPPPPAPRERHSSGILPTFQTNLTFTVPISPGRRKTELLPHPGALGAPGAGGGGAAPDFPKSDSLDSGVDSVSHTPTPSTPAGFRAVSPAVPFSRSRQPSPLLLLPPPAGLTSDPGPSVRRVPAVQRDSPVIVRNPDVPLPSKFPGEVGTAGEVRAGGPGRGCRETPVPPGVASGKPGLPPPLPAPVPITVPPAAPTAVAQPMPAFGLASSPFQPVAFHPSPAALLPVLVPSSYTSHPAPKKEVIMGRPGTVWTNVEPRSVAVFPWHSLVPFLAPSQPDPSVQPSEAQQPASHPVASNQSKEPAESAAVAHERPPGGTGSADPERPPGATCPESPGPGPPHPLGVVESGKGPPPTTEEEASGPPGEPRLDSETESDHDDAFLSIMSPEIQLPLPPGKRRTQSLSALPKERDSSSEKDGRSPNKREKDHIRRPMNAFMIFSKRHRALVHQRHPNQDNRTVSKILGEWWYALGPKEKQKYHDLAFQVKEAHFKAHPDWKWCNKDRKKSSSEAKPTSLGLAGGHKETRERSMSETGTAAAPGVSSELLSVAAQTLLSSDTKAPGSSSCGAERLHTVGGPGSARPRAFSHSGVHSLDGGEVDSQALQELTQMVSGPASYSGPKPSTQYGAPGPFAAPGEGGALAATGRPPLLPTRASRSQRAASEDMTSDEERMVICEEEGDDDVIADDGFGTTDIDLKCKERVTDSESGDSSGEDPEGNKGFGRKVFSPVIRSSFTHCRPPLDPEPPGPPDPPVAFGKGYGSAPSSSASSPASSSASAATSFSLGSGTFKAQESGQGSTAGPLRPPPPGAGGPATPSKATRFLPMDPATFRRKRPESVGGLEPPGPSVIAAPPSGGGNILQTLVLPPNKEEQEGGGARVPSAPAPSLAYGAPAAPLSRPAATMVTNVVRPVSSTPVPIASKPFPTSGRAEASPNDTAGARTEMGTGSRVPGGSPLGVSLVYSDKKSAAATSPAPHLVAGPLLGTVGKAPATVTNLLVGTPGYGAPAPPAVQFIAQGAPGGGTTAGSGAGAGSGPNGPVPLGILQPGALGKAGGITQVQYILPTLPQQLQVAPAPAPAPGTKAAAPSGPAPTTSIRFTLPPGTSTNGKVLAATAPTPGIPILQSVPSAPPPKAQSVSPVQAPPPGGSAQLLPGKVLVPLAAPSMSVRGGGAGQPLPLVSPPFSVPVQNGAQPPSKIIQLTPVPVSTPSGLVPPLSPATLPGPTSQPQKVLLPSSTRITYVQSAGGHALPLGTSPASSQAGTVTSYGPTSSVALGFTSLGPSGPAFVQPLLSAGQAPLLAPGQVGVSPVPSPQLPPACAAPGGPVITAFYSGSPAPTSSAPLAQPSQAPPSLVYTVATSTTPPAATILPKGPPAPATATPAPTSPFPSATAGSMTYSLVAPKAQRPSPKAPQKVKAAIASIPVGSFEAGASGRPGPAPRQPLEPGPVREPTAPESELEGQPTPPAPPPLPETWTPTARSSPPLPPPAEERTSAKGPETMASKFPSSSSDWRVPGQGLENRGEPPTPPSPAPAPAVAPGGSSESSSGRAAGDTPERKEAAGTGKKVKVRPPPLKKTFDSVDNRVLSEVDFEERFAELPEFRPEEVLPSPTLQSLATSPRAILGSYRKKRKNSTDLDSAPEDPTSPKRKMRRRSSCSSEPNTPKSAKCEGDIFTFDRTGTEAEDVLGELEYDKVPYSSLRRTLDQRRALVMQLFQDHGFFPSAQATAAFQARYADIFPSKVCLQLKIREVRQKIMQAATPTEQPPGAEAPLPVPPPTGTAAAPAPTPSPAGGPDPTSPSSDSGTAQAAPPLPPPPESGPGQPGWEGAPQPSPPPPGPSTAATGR
UniProt P25705, residues 44-553: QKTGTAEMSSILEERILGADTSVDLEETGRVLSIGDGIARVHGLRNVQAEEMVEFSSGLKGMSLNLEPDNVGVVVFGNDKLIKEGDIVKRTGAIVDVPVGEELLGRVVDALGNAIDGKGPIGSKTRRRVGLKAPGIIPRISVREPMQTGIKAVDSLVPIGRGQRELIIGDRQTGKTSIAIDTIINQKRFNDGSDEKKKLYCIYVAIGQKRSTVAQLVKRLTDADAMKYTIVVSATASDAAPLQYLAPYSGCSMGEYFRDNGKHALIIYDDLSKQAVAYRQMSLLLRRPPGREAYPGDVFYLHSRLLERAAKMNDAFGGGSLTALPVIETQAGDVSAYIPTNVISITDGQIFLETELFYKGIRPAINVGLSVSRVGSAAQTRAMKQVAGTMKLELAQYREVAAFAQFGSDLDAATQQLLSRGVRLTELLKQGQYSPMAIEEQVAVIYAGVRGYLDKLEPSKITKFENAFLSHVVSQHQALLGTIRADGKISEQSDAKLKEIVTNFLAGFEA
UniProt P53396: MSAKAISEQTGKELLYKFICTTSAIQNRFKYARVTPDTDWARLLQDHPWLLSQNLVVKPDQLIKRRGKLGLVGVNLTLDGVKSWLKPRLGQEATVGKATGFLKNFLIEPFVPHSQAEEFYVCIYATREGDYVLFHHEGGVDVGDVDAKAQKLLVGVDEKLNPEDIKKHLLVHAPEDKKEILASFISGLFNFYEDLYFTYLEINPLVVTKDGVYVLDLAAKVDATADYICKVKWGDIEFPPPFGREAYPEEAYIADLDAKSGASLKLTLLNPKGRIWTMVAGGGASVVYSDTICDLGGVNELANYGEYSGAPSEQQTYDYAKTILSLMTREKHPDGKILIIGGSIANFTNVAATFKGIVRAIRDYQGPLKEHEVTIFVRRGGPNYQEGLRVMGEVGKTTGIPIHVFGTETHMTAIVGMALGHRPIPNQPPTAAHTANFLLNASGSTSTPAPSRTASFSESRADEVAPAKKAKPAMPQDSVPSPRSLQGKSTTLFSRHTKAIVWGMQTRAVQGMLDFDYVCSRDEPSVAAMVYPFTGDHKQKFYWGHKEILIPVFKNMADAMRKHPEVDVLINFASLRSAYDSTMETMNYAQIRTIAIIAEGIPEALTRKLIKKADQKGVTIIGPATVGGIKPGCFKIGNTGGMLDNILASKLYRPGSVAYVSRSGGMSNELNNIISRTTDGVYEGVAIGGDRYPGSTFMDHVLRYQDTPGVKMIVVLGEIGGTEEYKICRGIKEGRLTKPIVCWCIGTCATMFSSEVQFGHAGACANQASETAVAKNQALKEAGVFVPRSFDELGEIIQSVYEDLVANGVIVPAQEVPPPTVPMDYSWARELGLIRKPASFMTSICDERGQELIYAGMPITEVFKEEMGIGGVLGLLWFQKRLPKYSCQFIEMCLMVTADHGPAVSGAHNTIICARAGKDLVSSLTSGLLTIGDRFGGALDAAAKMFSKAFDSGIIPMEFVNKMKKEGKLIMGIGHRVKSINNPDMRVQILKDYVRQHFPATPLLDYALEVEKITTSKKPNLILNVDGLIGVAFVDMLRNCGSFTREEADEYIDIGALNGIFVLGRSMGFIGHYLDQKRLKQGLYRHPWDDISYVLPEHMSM
UniProt O00429: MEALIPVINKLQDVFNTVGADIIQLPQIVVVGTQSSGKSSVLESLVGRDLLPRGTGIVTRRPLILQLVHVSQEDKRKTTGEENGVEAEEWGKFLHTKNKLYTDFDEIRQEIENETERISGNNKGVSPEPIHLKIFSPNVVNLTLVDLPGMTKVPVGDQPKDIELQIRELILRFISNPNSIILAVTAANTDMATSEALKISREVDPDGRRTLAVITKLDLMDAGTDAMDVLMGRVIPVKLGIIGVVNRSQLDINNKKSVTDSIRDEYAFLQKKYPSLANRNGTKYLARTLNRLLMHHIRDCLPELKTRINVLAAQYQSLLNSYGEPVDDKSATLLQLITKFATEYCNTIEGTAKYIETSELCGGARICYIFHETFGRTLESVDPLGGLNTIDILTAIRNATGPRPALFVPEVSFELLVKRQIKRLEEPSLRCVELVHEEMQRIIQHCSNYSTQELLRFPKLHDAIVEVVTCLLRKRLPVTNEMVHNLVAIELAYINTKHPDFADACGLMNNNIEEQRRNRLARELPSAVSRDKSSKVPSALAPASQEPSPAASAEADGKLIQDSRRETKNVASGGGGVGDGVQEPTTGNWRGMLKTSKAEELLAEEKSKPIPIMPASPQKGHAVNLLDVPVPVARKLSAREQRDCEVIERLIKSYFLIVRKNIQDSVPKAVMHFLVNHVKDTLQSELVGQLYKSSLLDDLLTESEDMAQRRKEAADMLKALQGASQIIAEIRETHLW
UniProt P38646, residues 47-679: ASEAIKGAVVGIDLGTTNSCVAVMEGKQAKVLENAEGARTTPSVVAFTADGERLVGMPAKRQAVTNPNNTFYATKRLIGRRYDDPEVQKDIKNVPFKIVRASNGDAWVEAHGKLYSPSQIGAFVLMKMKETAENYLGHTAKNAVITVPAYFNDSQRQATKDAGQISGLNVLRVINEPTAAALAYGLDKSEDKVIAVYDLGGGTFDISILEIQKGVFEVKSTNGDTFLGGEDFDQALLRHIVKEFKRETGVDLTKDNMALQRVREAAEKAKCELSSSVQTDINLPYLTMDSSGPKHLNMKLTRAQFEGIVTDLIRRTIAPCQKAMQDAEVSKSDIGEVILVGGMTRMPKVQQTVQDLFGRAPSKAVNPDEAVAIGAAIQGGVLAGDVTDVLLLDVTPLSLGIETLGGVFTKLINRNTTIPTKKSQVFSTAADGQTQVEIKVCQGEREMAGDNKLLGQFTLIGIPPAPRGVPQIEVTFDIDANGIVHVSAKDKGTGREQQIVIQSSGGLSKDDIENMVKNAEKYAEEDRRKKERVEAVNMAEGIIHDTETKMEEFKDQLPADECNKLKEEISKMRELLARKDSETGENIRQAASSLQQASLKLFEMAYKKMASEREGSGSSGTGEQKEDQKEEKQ

No constants are given. Whether binding was seen depends on the method and setting. Binding seen in cells or lysates may run through a third protein. These calls come from enrichment with a bait or labelling near it, and not all partners need be listed.

The target of test [1] is N-terminally GFP tagged CIC-S (human) (UniProt Q96RK0). In words: affinity purification with mass spectrometry; CIC-S with N-terminal FLAG, Myc or GFP tag transiently expressed in HEK cells; IP of cytoplasmic fractions with anti-FLAG (F-1), anti-Myc (M-1) or anti-GFP (G-1) antibodies, empty vectors as controls; LC-MS/MS.
Test [2] deals with N-terminally Myc tagged CIC-S (human) (UniProt Q96RK0). The description is as above.
Test [3] has as its target endogenous Capicua short isoform (CIC-S) (human (endogenous in HEK)) (UniProt Q96RK0). In words: affinity purification with mass spectrometry; IP of endogenous CIC with an anti-CIC antibody on protein G agarose from HEK cytoplasmic fractions (E-1, E-2, E-3; W-1 not explained), rabbit IgG IPs as controls; IP buffer 20mM Tris-HCl pH 7.5, 150mM NaCl, 1mM EDTA, 4°C; LC-MS/MS.

The target in test [4] is N-terminally FLAG fused CIC-S (human) (UniProt Q96RK0). In words: affinity purification with mass spectrometry; CIC-S with N-terminal FLAG, Myc or GFP tag transiently expressed in HEK cells; IP of cytoplasmic fractions with anti-FLAG (F-1), anti-Myc (M-1) or anti-GFP (G-1) antibodies, empty vectors as controls; LC-MS/MS.

Regarding “ATP synthase subunit alpha, mitochondrial (from UniProt P25705 44-553)”, the binding result in test [1] and in test [2] was “binds” in each case.

Turning to “ATP synthase subunit beta, mitochondrial (from UniProt P06576 48-529)”, the binding result in test [3] and in test [1] was “binds” throughout.

As for “ATP-citrate synthase (ATP citrate-lyase), endogenous (from UniProt P53396 1-1101) (enzyme)”, the binding entry in test [3] is recorded as “binds”.

Consider “Dynamin-1-like protein (from UniProt O00429 1-736)”, for which, in test [3], the binding result was “binds”.

With “Stress-70 protein, mitochondrial (from UniProt P38646 47-679)”, the binding result in test [4] and in test [1] was “binds” in each case.

B1: Ataxin2L (protein, UniProt Q8WWM7 1-1075)
chain: MLKPQPLQQPSQPQQPPPTQQAVARRPPGGTSPPNGGLPGPLATSAAPPGPPAAASPCLGPVAAAGSGLRRGAEGILAPQPPPPQQHQERPGAAAIGSARGQSTGKGPPQSPVFEGVYNNSRMLHFLTAVVGSTCDVKVKNGTTYEGIFKTLSSKFELAVDAVHRKASEPAGGPRREDIVDTMVFKPSDVMLVHFRNVDFNYATKDKFTDSAIAMNSKVNGEHKEKVLQRWEGGDSNSDDYDLESDMSNGWDPNEMFKFNEENYGVKTTYDSSLSSYTVPLEKDNSEEFRQRELRAAQLAREIESSPQYRLRIAMENDDGRTEEEKHSAVQRQGSGRESPSLASREGKYIPLPQRVREGPRGGVRCSSSRGGRPGLSSLPPRGPHHLDNSSPGPGSEARGINGGPSRMSPKAQRPLRGAKTLSSPSNRPSGETSVPPPPAVGRMYPPRSPKSAAPAPISASCPEPPIGSAVPTSSASIPVTSSVSDPGVGSISPASPKISLAPTDVKELSTKEPGRTLEPQELARIAGKVPGLQNEQKRFQLEELRKFGAQFKLQPSSSPENSLDPFPPRILKEEPKGKEKEVDGLLTSEPMGSPVSSKTESVSDKEDKPPLAPSGGTEGPEQPPPPCPSQTGSPPVGLIKGEDKDEGPVAEQVKKSTLNPNAKEFNPTKPLLSVNKSTSTPTSPGPRTHSTPSIPVLTAGQSGLYSPQYISYIPQIHMGPAVQAPQMYPYPVSNSVPGQQGKYRGAKGSLPPQRSDQHQPASAPPMMQAAAAAGPPLVAATPYSSYIPYNPQQFPGQPAMMQPMAHYPSQPVFAPMLQSNPRMLTSGSHPQAIVSSSTPQYPSAEQPTPQALYATVHQSYPHHATQLHAHQPQPATTPTGSQPQSQHAAPSPVQHQAGQAPHLGSGQPQQNLYHPGALTGTPPSLPPGPSAQSPQSSFPQPAAVYAIHHQQLPHGFTNMAHVTQAHVQTGITAAPPPHPGAPHPPQVMLLHPPQSHGGPPQGAVPQSGVPALSASTPSPYPYIGHPQGEQPGQAPGFPGGADDRIREFSLAGGIWHGRAEGLQVGQDARVLGGE
With B1, the binding entry in test [3] is “binds”.

B2: Putative ATP-dependent RNA helicase DHX30 (protein, UniProt Q7L2E3 1-1194)
chain: MFSLDSFRKDRAQHRQRQCKLPPPRLPPMCVNPTPGGTISRASRDLLKEFPQPKNLLNSVIGRALGISHAKDKLVYVHTNGPKKKKVTLHIKWPKSVEVEGYGSKKIDAERQAAAAACQLFKGWGLLGPRNELFDAAKYRVLADRFGSPADSWWRPEPTMPPTSWRQLNPESIRPGGPGGLSRSLGREEEEDEEEELEEGTIDVTDFLSMTQQDSHAPLRDSRGSSFEMTDDDSAIRALTQFPLPKNLLAKVIQIATSSSTAKNLMQFHTVGTKTKLSTLTLLWPCPMTFVAKGRRKAEAENKAAALACKKLKSLGLVDRNNEPLTHAMYNLASLRELGETQRRPCTIQVPEPILRKIETFLNHYPVESSWIAPELRLQSDDILPLGKDSGPLSDPITGKPYVPLLEAEEVRLSQSLLELWRRRGPVWQEAPQLPVDPHRDTILNAIEQHPVVVISGDTGCGKTTRIPQLLLERYVTEGRGARCNVIITQPRRISAVSVAQRVSHELGPSLRRNVGFQVRLESKPPSRGGALLFCTVGILLRKLQSNPSLEGVSHVIVDEVHERDVNTDFLLILLKGLQRLNPALRLVLMSATGDNERFSRYFGGCPVIKVPGFMYPVKEHYLEDILAKLGKHQYLHRHRHHESEDECALDLDLVTDLVLHIDARGEPGGILCFLPGWQEIKGVQQRLQEALGMHESKYLILPVHSNIPMMDQKAIFQQPPVGVRKIVLATNIAETSITINDIVHVVDSGLHKEERYDLKTKVSCLETVWVSRANVIQRRGRAGRCQSGFAYHLFPRSRLEKMVPFQVPEILRTPLENLVLQAKIHMPEKTAVEFLSKAVDSPNIKAVDEAVILLQEIGVLDQREYLTTLGQRLAHISTDPRLAKAIVLAAIFRCLHPLLVVVSCLTRDPFSSSLQNRAEVDKVKALLSHDSGSDHLAFVRAVAGWEEVLRWQDRSSRENYLEENLLYAPSLRFIHGLIKQFSENIYEAFLVGKPSDCTLASAQCNEYSEEEELVKGVLMAGLYPNLIQVRQGKVTRQGKFKPNSVTYRTKSGNILLHKSTINREATRLRSRWLTYFMAVKSNGSVFVRDSSQVHPLAVLLLTDGDVHIRDDGRRATISLSDSDLLRLEGDSRTVRLLKELRRALGRMVERSLRSELAALPPSVQEEHGQLLALLAELLRGPCGSFDVRKTADD
B2: the binding entry in test [3] and in test [2] was “binds” each time.

B3: Hyaluronan mediated motility receptor (protein, UniProt O75330 1-724)
chain: MSFPKAPLKRFNDPSGCAPSPGAYDVKTLEVLKGPVSFQKSQRFKQQKESKQNLNVDKDTTLPASARKVKSSESKESQKNDKDLKILEKEIRVLLQERGAQDRRIQDLETELEKMEARLNAALREKTSLSANNATLEKQLIELTRTNELLKSKFSENGNQKNLRILSLELMKLRNKRETKMRGMMAKQEGMEMKLQVTQRSLEESQGKIAQLEGKLVSIEKEKIDEKSETEKLLEYIEEISCASDQVEKYKLDIAQLEENLKEKNDEILSLKQSLEENIVILSKQVEDLNVKCQLLEKEKEDHVNRNREHNENLNAEMQNLKQKFILEQQEREKLQQKELQIDSLLQQEKELSSSLHQKLCSFQEEMVKEKNLFEEELKQTLDELDKLQQKEEQAERLVKQLEEEAKSRAEELKLLEEKLKGKEAELEKSSAAHTQATLLLQEKYDSMVQSLEDVTAQFESYKALTASEIEDLKLENSSLQEKAAKAGKNAEDVQHQILATESSNQEYVRMLLDLQTKSALKETEIKEITVSFLQKITDLQNQLKQQEEDFRKQLEDEEGRKAEKENTTAELTEEINKWRLLYEELYNKTKPFQLQLDAFEVEKQALLNEHGAAQEQLNKIRDSYAKLLGHQNLKQKIKHVVKLKDENSQLKSEVSKLRCQLAKKKQSETKLQEELNKVLGIKHFDPSKAFHHESKENFALKTPLKEGNTNCYRAPMECQESWK
For the molecule B3, the binding result in test [3] is recorded as “binds”.

B4: Cob(I)yrinic acid a,c-diamide adenosyltransferase, mitochondrial (enzyme, UniProt Q96EY8 33-250)
chain: QSRGPQGVEDGDRPQPSSKTPRIPKIYTKTGDKGFSSTFTGERRPKDDQVFEAVGTTDELSSAIGFALELVTEKGHTFAEELQKIQCTLQDVGSALATPCSSAREAHLKYTTFKAGPILELEQWIDKYTSQLPPLTAFILPSGGKISSALHFCRAVCRRAERRVVPLVQMGETDANVAKFLNRLSDYLFTLARYAAMKEGNQEKIYMKNDPSAESEGL
Regarding B4, the binding result in test [3] is “binds”.
